Test results: the supplement of paper PMC10849652
The other results are listed elsewhere or left out.

Protein sequences, listed by entry. Tags and fused reporters are not part of them. Lines headed by an entry give the natural chain unless they say otherwise; changes in a name come on top.
UniProt Q13936, whole entry, looked up: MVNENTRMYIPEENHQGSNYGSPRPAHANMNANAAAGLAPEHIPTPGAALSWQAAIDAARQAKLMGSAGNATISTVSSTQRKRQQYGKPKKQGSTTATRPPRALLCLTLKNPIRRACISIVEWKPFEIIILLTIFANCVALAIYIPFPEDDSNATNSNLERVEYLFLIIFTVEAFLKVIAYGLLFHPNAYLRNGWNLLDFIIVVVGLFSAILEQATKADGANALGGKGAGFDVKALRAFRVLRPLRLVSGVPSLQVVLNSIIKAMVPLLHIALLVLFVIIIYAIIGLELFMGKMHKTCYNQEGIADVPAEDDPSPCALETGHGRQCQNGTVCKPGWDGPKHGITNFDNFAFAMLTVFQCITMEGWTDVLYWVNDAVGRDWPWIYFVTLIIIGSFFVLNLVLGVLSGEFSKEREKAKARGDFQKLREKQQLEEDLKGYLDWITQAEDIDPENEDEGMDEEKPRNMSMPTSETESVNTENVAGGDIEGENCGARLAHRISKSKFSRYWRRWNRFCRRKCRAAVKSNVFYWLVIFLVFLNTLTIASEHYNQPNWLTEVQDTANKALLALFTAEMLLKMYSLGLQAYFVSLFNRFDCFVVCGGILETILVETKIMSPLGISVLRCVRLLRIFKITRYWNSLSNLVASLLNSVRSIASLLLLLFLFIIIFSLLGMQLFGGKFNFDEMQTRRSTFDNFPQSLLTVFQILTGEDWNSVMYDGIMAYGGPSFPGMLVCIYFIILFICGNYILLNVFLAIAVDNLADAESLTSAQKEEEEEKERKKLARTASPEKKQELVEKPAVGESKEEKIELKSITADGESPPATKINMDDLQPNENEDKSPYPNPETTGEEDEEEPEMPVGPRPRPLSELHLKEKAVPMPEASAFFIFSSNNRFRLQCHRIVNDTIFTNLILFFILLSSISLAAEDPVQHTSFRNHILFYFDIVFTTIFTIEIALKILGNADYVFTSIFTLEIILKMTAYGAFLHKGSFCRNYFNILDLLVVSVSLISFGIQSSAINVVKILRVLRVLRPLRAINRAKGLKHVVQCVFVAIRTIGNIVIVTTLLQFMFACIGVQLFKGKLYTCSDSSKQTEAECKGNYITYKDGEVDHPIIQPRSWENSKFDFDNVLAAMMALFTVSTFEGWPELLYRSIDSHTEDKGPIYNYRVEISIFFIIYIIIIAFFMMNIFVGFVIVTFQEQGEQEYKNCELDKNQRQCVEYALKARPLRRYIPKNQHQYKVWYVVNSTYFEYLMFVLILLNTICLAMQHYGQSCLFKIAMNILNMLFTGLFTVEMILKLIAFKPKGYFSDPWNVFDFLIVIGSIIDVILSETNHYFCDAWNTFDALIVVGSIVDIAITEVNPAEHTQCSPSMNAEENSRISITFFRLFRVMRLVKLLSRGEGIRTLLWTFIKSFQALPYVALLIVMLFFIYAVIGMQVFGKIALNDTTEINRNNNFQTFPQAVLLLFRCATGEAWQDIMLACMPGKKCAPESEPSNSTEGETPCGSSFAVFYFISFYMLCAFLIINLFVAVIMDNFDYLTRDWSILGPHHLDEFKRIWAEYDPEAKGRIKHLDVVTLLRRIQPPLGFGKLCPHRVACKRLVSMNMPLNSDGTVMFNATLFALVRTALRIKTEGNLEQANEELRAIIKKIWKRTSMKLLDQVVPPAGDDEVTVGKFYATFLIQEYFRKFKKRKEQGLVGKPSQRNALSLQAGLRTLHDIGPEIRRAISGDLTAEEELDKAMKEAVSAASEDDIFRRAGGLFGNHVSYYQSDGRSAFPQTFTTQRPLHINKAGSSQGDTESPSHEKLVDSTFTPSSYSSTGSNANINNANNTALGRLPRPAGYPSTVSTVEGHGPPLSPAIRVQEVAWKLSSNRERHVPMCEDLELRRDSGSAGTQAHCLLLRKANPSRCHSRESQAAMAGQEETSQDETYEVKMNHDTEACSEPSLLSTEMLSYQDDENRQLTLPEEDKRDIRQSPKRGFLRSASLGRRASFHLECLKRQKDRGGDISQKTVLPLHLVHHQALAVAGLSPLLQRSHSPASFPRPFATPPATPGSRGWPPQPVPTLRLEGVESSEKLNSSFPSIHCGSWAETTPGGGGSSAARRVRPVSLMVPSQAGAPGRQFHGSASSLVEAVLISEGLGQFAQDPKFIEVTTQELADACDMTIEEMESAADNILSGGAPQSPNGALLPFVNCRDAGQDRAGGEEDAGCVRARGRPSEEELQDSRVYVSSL
UniProt Q7Z7L8: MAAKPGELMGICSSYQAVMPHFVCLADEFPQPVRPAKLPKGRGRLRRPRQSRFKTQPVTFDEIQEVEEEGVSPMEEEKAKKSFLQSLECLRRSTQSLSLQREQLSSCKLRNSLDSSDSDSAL
UniProt Q6ZRI6: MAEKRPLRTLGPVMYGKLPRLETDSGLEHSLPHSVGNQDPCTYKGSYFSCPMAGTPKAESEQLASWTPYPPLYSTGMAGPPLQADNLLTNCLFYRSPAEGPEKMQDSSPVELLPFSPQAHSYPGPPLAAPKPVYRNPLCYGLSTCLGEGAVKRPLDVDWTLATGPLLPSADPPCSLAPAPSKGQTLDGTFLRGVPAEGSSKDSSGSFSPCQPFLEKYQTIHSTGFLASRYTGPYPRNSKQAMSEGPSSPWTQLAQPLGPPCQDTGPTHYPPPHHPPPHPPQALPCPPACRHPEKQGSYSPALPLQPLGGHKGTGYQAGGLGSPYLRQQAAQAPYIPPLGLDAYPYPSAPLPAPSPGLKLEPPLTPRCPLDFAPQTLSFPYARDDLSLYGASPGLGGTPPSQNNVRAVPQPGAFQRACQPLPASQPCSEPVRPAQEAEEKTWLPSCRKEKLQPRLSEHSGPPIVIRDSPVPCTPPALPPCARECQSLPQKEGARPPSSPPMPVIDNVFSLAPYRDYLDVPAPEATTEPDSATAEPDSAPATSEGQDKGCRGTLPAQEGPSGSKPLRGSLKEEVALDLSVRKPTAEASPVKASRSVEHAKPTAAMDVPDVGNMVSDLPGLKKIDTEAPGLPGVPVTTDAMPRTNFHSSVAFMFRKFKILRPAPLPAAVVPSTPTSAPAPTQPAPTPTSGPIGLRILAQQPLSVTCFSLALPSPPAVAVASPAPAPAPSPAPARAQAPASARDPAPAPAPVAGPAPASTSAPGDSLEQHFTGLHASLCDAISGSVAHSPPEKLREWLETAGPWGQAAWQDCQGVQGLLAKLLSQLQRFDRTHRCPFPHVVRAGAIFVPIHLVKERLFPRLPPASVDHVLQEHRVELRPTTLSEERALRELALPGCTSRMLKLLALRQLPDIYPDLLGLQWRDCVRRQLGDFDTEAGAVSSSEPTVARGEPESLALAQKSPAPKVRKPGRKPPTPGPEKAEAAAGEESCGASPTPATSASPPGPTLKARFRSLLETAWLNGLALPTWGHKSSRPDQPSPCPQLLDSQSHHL
UniProt Q7Z6I8: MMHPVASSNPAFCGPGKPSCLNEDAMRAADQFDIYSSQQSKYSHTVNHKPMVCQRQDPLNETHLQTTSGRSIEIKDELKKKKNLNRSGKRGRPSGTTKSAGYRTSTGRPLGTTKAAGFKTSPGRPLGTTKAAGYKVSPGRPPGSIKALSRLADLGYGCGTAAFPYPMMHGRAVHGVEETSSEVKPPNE
UniProt Q9NX04: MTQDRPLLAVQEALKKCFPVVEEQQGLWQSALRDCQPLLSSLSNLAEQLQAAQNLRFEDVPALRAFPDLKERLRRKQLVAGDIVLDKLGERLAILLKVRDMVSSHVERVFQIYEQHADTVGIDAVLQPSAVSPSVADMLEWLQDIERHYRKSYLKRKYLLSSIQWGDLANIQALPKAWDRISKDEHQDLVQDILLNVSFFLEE
UniProt Q96HA4: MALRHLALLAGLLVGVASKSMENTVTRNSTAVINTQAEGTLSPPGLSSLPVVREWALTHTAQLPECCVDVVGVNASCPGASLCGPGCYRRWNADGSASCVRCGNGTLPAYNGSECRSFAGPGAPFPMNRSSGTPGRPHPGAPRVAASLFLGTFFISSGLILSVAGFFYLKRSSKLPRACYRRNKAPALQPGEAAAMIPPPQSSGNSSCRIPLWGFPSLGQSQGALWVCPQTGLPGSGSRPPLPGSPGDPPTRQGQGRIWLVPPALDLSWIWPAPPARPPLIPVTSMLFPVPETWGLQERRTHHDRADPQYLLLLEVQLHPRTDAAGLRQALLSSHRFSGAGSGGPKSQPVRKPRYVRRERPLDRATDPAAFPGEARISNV
UniProt Q9NSK7: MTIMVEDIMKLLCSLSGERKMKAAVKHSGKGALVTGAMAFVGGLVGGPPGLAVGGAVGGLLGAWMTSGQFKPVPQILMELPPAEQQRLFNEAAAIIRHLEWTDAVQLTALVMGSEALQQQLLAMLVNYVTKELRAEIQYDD
UniProt Q8N3J3: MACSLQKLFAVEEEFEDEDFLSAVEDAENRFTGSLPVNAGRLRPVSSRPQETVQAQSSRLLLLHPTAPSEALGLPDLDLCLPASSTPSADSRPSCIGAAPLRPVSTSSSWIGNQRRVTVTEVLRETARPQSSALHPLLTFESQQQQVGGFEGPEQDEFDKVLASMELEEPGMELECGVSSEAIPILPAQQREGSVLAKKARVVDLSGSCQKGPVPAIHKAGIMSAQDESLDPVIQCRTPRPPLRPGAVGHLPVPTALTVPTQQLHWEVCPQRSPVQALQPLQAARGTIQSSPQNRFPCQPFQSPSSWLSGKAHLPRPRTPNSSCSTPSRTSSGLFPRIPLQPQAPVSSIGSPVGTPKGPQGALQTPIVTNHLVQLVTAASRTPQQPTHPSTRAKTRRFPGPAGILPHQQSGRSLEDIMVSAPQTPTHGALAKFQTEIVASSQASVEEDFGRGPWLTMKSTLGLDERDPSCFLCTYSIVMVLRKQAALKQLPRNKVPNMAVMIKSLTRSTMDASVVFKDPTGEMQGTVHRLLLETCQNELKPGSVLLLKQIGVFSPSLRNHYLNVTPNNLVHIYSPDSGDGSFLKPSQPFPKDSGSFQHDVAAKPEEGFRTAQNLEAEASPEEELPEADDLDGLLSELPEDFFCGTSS
UniProt P0DMB2: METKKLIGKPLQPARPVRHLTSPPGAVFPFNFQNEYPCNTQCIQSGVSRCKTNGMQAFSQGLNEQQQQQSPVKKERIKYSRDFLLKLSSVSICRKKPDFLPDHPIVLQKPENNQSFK
UniProt P23280: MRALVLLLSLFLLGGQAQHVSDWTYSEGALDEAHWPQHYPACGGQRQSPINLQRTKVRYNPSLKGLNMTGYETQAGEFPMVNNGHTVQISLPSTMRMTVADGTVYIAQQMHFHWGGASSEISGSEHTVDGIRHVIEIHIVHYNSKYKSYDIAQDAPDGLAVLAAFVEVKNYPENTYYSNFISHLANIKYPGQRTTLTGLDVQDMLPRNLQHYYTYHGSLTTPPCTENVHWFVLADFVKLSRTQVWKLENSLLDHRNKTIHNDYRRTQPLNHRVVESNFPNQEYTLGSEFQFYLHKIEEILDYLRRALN
UniProt Q504U0: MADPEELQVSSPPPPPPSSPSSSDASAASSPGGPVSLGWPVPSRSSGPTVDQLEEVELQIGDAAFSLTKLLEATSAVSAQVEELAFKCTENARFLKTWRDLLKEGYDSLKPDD
UniProt Q9BRD0: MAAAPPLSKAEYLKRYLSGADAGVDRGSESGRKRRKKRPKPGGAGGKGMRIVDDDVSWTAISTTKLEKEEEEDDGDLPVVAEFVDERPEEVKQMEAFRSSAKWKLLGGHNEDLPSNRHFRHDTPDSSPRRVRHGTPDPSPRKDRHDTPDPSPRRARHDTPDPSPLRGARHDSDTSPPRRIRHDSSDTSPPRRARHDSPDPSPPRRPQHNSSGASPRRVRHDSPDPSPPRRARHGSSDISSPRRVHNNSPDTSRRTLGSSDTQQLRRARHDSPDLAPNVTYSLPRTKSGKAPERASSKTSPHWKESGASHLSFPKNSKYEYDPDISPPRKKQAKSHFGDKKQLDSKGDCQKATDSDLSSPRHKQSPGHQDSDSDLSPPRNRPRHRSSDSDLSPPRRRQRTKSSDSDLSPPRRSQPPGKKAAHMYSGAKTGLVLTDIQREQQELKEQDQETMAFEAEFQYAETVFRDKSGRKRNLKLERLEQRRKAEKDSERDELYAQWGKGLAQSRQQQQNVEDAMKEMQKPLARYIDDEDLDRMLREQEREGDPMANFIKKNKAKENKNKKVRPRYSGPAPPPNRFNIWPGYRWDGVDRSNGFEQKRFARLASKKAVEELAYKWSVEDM
UniProt Q9NZP8: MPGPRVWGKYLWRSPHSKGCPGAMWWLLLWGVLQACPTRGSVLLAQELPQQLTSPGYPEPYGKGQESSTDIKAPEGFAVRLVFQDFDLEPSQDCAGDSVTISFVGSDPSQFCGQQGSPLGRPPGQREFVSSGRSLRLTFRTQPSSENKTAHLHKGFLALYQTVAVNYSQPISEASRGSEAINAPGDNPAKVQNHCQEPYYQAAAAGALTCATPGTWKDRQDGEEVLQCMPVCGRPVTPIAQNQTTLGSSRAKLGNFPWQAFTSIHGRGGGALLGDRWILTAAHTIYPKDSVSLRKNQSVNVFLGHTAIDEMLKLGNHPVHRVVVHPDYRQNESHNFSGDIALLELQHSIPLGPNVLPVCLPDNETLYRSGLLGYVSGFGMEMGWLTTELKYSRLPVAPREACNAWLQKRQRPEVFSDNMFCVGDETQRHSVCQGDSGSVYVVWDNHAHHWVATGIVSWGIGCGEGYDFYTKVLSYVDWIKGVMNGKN

Columns and labels:
Test in all cases: log2 fold change, soluble protein after heating vs DMSO (PISA); higher = thermal stabilisation; K562 lysate, 10 uM; active = over 0.2 and 3.5 SD of the protein, either way, in both replicates (recomputed)
[1] = compound: CCn1c(C(=O)N(C2CC2)C2CC2)cc2c3c(ncn3C)c(Nc3cc(C)n(C)n3)nc21
In short: (§1)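 K562 pellets were dounce-homogenised in PBS pH 7.4 with 1 mM MgCl2, and the crude extract at 1 mg/mL protein was treated with 10 μM compound for 30 min. Aliquots were heated for 3 min across 48°C-58°C, pooled, and brought to 0.5% NP-40 at 4°C; soluble protein was the supernatant after 21,000xg for 90 min. Soluble protein was quantified by TMTpro 16plex LC-MS/MS with channel sums equalised, and reported as log2 fold change in thermal stability against DMSO controls, with values from duplicates.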

[2] = compound: CCn1cc(-c2ccnc3[nH]c(-c4cccc(CN(C)C)c4)cc23)c(-c2ccc(NC(=O)N(C)C)cc2)n1
In short: as §1

[3] = compound: CN1CCC(CNc2ccc3ncc(-c4cccc(OC(F)(F)F)c4)n3n2)CC1
In short: as §1

sotrastaurin = compound: CN1CCN(c2nc(C3=C(c4c[nH]c5ccccc45)C(=O)NC3=O)c3ccccc3n2)CC1 [sotrastaurin]
In short: as §1

alvocidib = compound: CN1CC[C@H](c2c(O)cc(O)c3c(=O)cc(-c4ccccc4Cl)oc23)[C@H](O)C1 [alvocidib]
In short: as §1

Tubastatin A = compound: CN1CCc2c(c3ccccc3n2Cc2ccc(C(=O)NO)cc2)C1 [Tubastatin A]
In short: as §1

[4] = compound: CCCS(=O)(=O)Nc1ccc(F)c(C(=O)c2c[nH]c3ncc(Cl)cc23)c1F
In short: as §1

volasertib = compound: CC[C@@H]1C(=O)N(C)c2cnc(Nc3ccc(C(=O)N[C@H]4CC[C@H](N5CCN(CC6CC6)CC5)CC4)cc3OC)nc2N1C(C)C [volasertib]
In short: as §1

[5] = compound: CNC(=O)C1=CC=CC=C1NC2=NC(=NC=C2Cl)NC3=C(C=C(C=C3)N4CCOCC4)OC
In short: as §1

[6] = compound: COc1cc2nc(-c3cc(F)ccc3O)nc(N[C@@H]3CNC[C@H]3C(C)(C)O)c2cc1OC
In short: as §1

barasertib = compound: CCN(CCCOc1ccc2c(Nc3cc(CC(=O)Nc4cccc(F)c4)[nH]n3)ncnc2c1)CCOP(=O)(O)O [barasertib]
In short: as §1

saracatinib = compound: CN1CCN(CCOc2cc(OC3CCOCC3)c3c(Nc4c(Cl)ccc5c4OCO5)ncnc3c2)CC1 [saracatinib]
In short: as §1

[7] = compound: CNc1nc(-c2ccc3c(N)n[nH]c3c2)cc(N2C[C@@H](C(=O)NC3CCCCC3)CC[C@H]2C)n1
In short: as §1

alisertib = compound: COc1cc(Nc2ncc3c(n2)-c2ccc(Cl)cc2C(c2c(F)cccc2OC)=NC3)ccc1C(=O)O [alisertib]
In short: as §1

gefitinib = compound: COc1cc2ncnc(Nc3ccc(F)c(Cl)c3)c2cc1OCCCN1CCOCC1 [gefitinib]
In short: as §1

[8] = compound: CC[C@@H]1C(=O)N(C)c2cnc(Nc3ccc(C(=O)NC4CCN(C)CC4)cc3OC)nc2N1C1CCCC1
In short: as §1

encorafenib = compound: COC(=O)N[C@@H](C)CNc1nccc(-c2cn(C(C)C)nc2-c2cc(Cl)cc(NS(C)(=O)=O)c2F)n1 [encorafenib]
In short: as §1

[9] = compound: COC(=O)[C@H](CCSC)NC(=O)C1=C(C=C(C=C1)NC[C@H](CS)N)C2=CC=CC=C2
In short: as §1

Measured: log2 fold change

C11orf24 (UniProt Q96F05)
inactive: [1] -0.072 | [2] 0.11 | [3] 0.119 | sotrastaurin -0.04 | alvocidib -0.086 | Tubastatin A -0.371

CARD19 (UniProt Q96LW7)
inactive: sotrastaurin 0.081

CACNA1C isoform 2 (UniProt Q13936)
inactive: [4] 0.069 | volasertib 0.151 | [2] -0.034 | [3] -0.014 | alvocidib -0.152 | [5] 0.113 | [6] 0.079

C12orf73 (UniProt Q69YU5)
inactive: [4] 0.012 | barasertib 0.056 | volasertib -0.011 | [1] -0.136 | [2] 0.003 | [3] -0.061 | saracatinib -0.082 | sotrastaurin -0.079 | alvocidib -0.005 | Tubastatin A 0.081 | [5] -0.014 | [7] 0.055 | alisertib 0.034 | [6] -0.041 | gefitinib -0.044

C11orf96 (UniProt Q7Z7L8)
inactive: [4] 0.122 | barasertib -0.035 | volasertib 0.061 | [1] 0.056 | [2] -0.107 | [3] 0.035 | saracatinib -0.002 | sotrastaurin -0.043 | alvocidib -0.032 | Tubastatin A -0.037 | [5] 0.078 | [7] 0.156 | alisertib -0.031 | [6] -0.046 | gefitinib 0.017

C15orf39 (UniProt Q6ZRI6)
inactive: barasertib -0.012 | [8] -0.047 | [1] -0.008 | [2] 0.08 | [3] 0.132 | saracatinib 0.025 | sotrastaurin 0.042 | alvocidib -0.04 | Tubastatin A -0.188 | [5] -0.031 | [7] 0.089 | encorafenib 0.047 | [9] 0.059 | alisertib 0.036 | gefitinib -0.067

CAP1 (UniProt Q5T0R8)
inactive: [4] -0.115 | volasertib 0.041 | [2] -0.107 | [3] 0.027 | alvocidib -0.02 | [5] 0.35 | [6] 0.129

C14orf119 (UniProt Q9NWQ9)
inactive: [2] 0.171 | [3] -0.125 | sotrastaurin 0.086 | alvocidib 0.041

CAPNS1 (UniProt U3KPR7)
inactive: [4] -0.125 | barasertib 0.424 | volasertib -0.01 | alisertib -0.069 | [6] 0.024 | gefitinib 0.165

C5orf24 (UniProt Q7Z6I8)
inactive: sotrastaurin 0.027

C1orf109 (UniProt Q9NX04)
inactive: [4] 0 | [8] -0.137 | volasertib -0.106 | [1] 0.048 | saracatinib -0.161 | sotrastaurin 0.086 | Tubastatin A -0.351 | [5] 0.093 | [7] 0.283 | encorafenib 0.043 | [9] -0.003 | alisertib 0.018 | [6] -0.076 | gefitinib -0.041

C1orf159 isoform 4 (UniProt Q96HA4)
inactive: [8] 0.014 | [2] 0.063 | [3] 0.028 | saracatinib 0.125 | alvocidib -0.081 | [7] -0.079 | encorafenib -0.026 | [9] 0.105

C19orf12 (UniProt Q9NSK7)
inactive: [4] -0.033 | [8] 0.02 | volasertib 0.107 | [1] 0.132 | saracatinib -0.002 | sotrastaurin -0.043 | Tubastatin A 0.031 | [7] -0.006 | encorafenib 0.036 | [9] -0.03 | alisertib 0.003 | [6] 0.016 | gefitinib -0.066

C6orf120 (UniProt Q7Z4R8)
inactive: [4] -0.127 | barasertib 0.096 | volasertib 0.051 | [2] -0.005 | [3] 0.049 | saracatinib 0.004 | alvocidib 0.096 | [5] 0.031 | [7] 0.066 | [6] -0.026

C9orf85 isoform 1 (UniProt Q96MD7)
inactive: barasertib 0.058 | [1] -0.118 | [2] -0.089 | [3] 0.043 | saracatinib 0.04 | alvocidib 0.018 | Tubastatin A 0.032 | [7] 0.204 | alisertib 0.007 | gefitinib 0.025

C17orf53 (UniProt Q8N3J3)
inactive: saracatinib 0.199 | sotrastaurin 0.089 | [5] -0.083 | [7] 0.067

CA1 (UniProt E5RIF9)
inactive: [8] 0.153 | [2] -0.111 | [3] 0.005 | alvocidib -0.199 | encorafenib -0.21 | [9] 0.09

C8orf88 (UniProt P0DMB2)
inactive: barasertib -0.053 | [1] 0.027 | [2] 0.084 | [3] 0.011 | saracatinib 0.051 | sotrastaurin -0.015 | alvocidib 0.072 | Tubastatin A -0.064 | [5] 0.07 | [7] -0.015

CA6 (UniProt P23280)
inactive: [5] -0.125

C4orf46 (UniProt Q504U0)
inactive: [1] 0.097 | saracatinib 0.192 | Tubastatin A -0.274 | [5] 0.152 | [7] -0.153

BUD13 (UniProt Q9BRD0)
inactive: barasertib 0.092 | [8] -0.07 | [1] -0.037 | [2] 0.076 | [3] -0.064 | saracatinib 0.096 | sotrastaurin 0.025 | alvocidib 0.033 | Tubastatin A -0.015 | [5] -0.022 | [7] 0.068 | encorafenib 0.007 | [9] 0.004 | alisertib 0.017 | gefitinib 0.108

C1RL (UniProt Q9NZP8)
inactive: [8] 0.089 | [2] 0.092 | [3] 0.158 | alvocidib 0.017 | encorafenib 0.114 | [9] -0.096

CAMKMT (UniProt Q7Z624)
inactive: [4] 0.02 | volasertib 0.111 | [1] 0.043 | saracatinib 0.005 | Tubastatin A -0.092 | [7] 0.003 | alisertib -0.023 | [6] -0.076 | gefitinib -0.188
